Numbering of substitutions follows the chain as printed. Names may count otherwise. Results are given in words; binding and its absence hold for the method and conditions named. In cells and extracts the contact can be indirect. Some binding calls cover weakened binding; strength is not graded here. Tags and fused reporters may be left off the sequences shown.
T1: Voa2 amino-terminal domain, ATP6V0A2 (NTD, 1-393), 3×FLAG-tagged (human) (UniProt Q9Y487)
T1 sequence: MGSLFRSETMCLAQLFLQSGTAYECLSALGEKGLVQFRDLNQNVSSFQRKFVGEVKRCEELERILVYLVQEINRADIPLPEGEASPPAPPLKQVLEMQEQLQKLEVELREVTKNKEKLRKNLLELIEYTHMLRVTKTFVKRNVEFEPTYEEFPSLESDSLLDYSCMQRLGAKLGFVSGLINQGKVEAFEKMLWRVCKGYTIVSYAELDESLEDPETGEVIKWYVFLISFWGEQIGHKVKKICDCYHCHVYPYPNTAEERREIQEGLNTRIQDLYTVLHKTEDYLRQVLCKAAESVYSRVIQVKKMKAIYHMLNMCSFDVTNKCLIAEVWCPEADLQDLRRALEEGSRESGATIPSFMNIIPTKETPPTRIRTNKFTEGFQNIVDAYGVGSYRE

Chains of the proteins cited; added tags and fusions are not shown. Lines headed by an entry give the natural chain unless they say otherwise; changes in a name come on top. A line that says so, or that is headed by a name, gives the form on record, which may keep a tag or linker. Residues count along the entry.
UniProt Q93050: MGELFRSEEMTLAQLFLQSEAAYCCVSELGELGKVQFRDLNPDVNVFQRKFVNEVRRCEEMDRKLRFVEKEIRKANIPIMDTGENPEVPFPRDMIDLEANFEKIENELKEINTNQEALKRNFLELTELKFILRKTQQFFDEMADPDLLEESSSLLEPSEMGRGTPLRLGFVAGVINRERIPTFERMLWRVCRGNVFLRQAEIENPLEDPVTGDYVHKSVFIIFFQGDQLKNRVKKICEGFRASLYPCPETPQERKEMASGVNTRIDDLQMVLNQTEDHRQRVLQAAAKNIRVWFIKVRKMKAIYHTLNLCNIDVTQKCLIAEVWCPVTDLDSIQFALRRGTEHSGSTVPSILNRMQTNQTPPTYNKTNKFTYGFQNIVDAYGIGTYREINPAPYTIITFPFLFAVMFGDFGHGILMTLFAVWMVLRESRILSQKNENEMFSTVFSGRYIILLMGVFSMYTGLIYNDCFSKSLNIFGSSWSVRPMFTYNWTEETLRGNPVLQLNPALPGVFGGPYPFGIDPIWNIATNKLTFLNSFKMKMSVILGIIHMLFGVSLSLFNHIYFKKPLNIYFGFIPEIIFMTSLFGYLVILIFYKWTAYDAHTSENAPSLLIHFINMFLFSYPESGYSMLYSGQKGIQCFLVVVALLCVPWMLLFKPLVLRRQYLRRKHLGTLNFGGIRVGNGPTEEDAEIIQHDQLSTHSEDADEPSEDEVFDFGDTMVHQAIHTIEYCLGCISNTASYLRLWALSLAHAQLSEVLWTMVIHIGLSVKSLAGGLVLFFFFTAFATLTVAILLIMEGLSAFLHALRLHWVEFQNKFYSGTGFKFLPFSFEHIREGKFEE
Voa1 amino-terminal domain, ATP6V0A1(NTD, 1-388), 3×FLAG-tagged: residues 1-388 of Q93050
UniProt Q9HBG4: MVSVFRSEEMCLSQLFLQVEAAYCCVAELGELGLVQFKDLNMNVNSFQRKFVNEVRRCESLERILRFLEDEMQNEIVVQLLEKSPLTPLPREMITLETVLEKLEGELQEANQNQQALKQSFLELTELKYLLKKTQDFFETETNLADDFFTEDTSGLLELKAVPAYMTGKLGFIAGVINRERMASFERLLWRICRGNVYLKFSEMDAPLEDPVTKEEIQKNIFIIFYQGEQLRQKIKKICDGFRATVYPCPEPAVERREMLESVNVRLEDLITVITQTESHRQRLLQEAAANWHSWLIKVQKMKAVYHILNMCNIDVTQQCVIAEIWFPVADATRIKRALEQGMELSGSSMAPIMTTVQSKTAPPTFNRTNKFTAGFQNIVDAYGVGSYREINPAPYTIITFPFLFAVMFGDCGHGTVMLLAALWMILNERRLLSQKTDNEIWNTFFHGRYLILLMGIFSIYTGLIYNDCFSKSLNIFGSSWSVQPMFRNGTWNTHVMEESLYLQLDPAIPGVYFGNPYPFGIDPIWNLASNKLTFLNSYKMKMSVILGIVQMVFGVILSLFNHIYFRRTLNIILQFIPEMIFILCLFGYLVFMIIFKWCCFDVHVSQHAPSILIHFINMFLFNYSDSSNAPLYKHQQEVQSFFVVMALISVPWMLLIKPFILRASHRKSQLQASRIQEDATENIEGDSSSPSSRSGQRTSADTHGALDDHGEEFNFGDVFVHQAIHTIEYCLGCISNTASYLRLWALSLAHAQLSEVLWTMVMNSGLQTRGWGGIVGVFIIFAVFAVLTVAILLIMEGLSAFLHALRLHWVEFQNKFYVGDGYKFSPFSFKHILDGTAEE
Voa4 amino-terminal domain, ATP6V0A4(NTD, 1-390), 3×FLAG-tagged: residues 1-390 of Q9HBG4

T2: Voa3 amino-terminal domain, ATP6V0A3(NTD, 1-385), 3×FLAG-tagged (human) (UniProt Q13488)
T2 sequence: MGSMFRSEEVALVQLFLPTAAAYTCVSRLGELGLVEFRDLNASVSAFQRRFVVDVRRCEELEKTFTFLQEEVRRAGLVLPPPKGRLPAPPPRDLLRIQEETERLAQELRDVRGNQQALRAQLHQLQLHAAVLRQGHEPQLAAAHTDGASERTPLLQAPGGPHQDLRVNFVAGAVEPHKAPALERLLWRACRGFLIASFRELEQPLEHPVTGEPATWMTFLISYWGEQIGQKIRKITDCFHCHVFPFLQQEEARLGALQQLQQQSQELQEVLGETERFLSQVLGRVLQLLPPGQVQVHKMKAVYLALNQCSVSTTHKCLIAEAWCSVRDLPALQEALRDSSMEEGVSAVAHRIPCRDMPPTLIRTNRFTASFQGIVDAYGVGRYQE

B1: apoptosis-resistant E3 ubiquitin protein ligase 1 (AREL1), wild type, myc-tagged (enzyme, UniProt O15033 1-823)
chain: MFYVIGGITVSVVAFFFTIKFLFELAARVVSFLQNEDRERRGDRTIYDYVRGNYLDPRSCKVSWDWKDPYEVGHSMAFRVHLFYKNGQPFPAHRPVGLRVHISHVELAVEIPVTQEVLQEPNSNVVKVAFTVRKAGRYEITVKLGGLNVAYSPYYKIFQPGMVVPSKTKIVCHFSTLVLTCGQPHTLQIVPRDEYDNPTNNSMSLRDEHNYTLSIHELGPQEEESTGVSFEKSVTSNRQTFQVFLRLTLHSRGCFHACISYQNQPINNGEFDIIVLSEDEKNIVERNVSTSGVSIYFEAYLYNATNCSSTPWHLPPMHMTSSQRRPSTAVDEEDEDSPSECHTPEKVKKPKKVYCYVSPKQFSVKEFYLKIIPWRLYTFRVCPGTKFSYLGPDPVHKLLTLVVDDGIQPPVELSCKERNILAATFIRSLHKNIGGSETFQDKVNFFQRELRQVHMKRPHSKVTLKVSRHALLESSLKATRNFSISDWSKNFEVVFQDEEALDWGGPRREWFELICKALFDTTNQLFTRFSDNNQALVHPNPNRPAHLRLKMYEFAGRLVGKCLYESSLGGAYKQLVRARFTRSFLAQIIGLRMHYKYFETDDPEFYKSKVCFILNNDMSEMELVFAEEKYNKSGQLDKVVELMTGGAQTPVTNANKIFYLNLLAQYRLASQVKEEVEHFLKGLNELVPENLLAIFDENELELLMCGTGDISVSDFKAHAVVVGGSWHFREKVMRWFWTVVSSLTQEELARLLQFTTGSSQLPPGGFAALCPSFQIIAAPTHSTLPTAHTCFNQLCLPTYDSYEEVHRMLQLAISEGCEGFGML
B2: AREL1 D709A (enzyme, UniProt O15033 1-823)
chain: B1 chain with D709A

What was measured:
Assay in all cases: co-IP; HEK293T cells transfected as indicated; lysis in IP buffer (50 mM Tris-HCl pH 7.6, 150 mM NaCl, 5 mM EDTA, 0.5% NP40, protease inhibitors); anti-FLAG beads, 4 °C, 4 h; immunoblotting (in Fig. 5D also with the inactive ZRANB1 C443S overexpressed)
[1] = molecular target: V-ATPase Vo subunit a, isoform 1 (Voa1, ATP6V0A1), 3×FLAG-tagged (human) (UniProt Q93050)
[2] = molecular target: T1, Voa2 amino-terminal domain, ATP6V0A2 (NTD, 1-393), 3×FLAG-tagged (human)
[3] = molecular target: T2, Voa3 amino-terminal domain, ATP6V0A3(NTD, 1-385), 3×FLAG-tagged (human)
[4] = molecular target: V-ATPase Vo subunit a, isoform 4 (Voa4, ATP6V0A4) (human) (UniProt Q9HBG4)
[5] = molecular target: Voa4 amino-terminal domain, ATP6V0A4(NTD, 1-390), 3×FLAG-tagged (human) (UniProt Q9HBG4)
[6] = molecular target: V-ATPase Vo subunit a, isoform 2 (Voa2, ATP6V0A2) (human) (UniProt Q9Y487)
[7] = molecular target: V-ATPase Vo subunit a, isoform 3 (Voa3, encoded by ATP6V0A3) (human) (UniProt Q13488)
[8] = molecular target: Voa1 amino-terminal domain, ATP6V0A1(NTD, 1-388), 3×FLAG-tagged (human) (UniProt Q93050)

| Binder | binding [1] | binding [2] | binding [3] | binding [4] | binding [5] | binding [6] | binding [7] | binding [8] |
| --- | --- | --- | --- | --- | --- | --- | --- | --- |
| B1 | binds | binds | binds | binds | binds | binds | binds | binds |
| B2 | – | – | – | – | – | – | binds weakly | – |
